# The supplement of paper PMC8728848
# The list shows a part of the results.
# B1: BSR4 (Toxoplasma gondii), Q95NL6 (protein)
# chain: MVMMGSMQQRRGGLRSNARQLLAVCMSGVVFFSSGQAVADNLLEGLLHRTLQQQVEVTSRLTVAGSDAKCDFFTPATQDSPPVSGSLTLSKGRMTATFECSATQALSISTIPTNIEQNVCDPKKTTNGTVCQFGANGSAGTEVTLKDLLETDRIVNWKVNEQREESNKSQKWSLELHNEDLPLTDKAFVVGCQATSAARGTESGKTAACKLTVNVEARASSLAENNVVTCAYGKGSNPNPVEVEMSTEKNTLTINCGSDGSLQPTTYAEEYCVADSKDVNRCSTTRFVEIFPKFLKSWWVTETQKRTSATLTIPQTDLPEADQQFLVGCVPKKTAPEDPKKDKESGTETGAPTSCTVLVTVKAASSASHASPTVQILAAASSAAA
# Columns and labels:
# Test in all cases: glycan array binding signal (z-score within array); higher = stronger binding
# Details in all cases: glycan notation: IUPAC condensed, linker removed
# [1] = target: Man(a1-2)Man(a1-6)[Man(a1-3)]Man(a1-6)[Man(a1-2)Man(a1-2)Man(a1-3)]Man(b1-4)GlcNAc(b1-4)GlcNAc
# Procedure, shortened: (§1)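 The binding signal is a Z-score computed within each array and averaged over linkers. Arrays of the same protein sequence at different concentrations or buffers were also averaged together. Data originate from 3228 arrays in the Consortium for Functional Glycomics database, kept only where the protein sequence was available.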
# Man(a1-3)[Man(a1-6)]Man = target: Man(a1-3)[Man(a1-6)]Man
# Procedure, shortened: as §1
# [2] = target: Man(a1-3)[Man(a1-6)]Man(a1-6)[Man(a1-2)Man(a1-3)]Man(b1-4)GlcNAc(b1-4)GlcNAc
# Procedure, shortened: as §1
# [3] = target: Man(a1-3)[Man(a1-6)]Man(a1-6)[Man(a1-3)]Man
# Procedure, shortened: as §1
# [4] = target: Man(a1-3)[Man(a1-6)]Man(a1-6)[Man(a1-3)]Man(b1-4)GlcNAc(b1-4)GlcNAc
# Procedure, shortened: as §1
# [5] = target: Man(a1-3)[Man(a1-6)]Man(b1-4)GlcNAc(b1-4)GlcNAc
# Procedure, shortened: as §1
# Man(a1-6)Man = target: Man(a1-6)Man
# Procedure, shortened: as §1
# Man(b1-4)GlcNAc = target: Man(b1-4)GlcNAc
# Procedure, shortened: as §1
# Neu5Ac(a2-3)Gal = target: Neu5Ac(a2-3)Gal
# Procedure, shortened: as §1
# [6] = target: Neu5Ac(a2-3)Gal(b1-3)GalNAc
# Procedure, shortened: as §1
# [7] = target: Neu5Ac(a2-3)Gal(b1-3)GalNAc(b1-3)Gal(a1-4)Gal(b1-4)Glc
# Procedure, shortened: as §1
# [8] = target: Neu5Ac(a2-3)Gal(b1-3)GalNAc(b1-4)[Neu5Ac(a2-3)]Gal(b1-4)Glc
# Procedure, shortened: as §1
# [9] = target: Neu5Ac(a2-3)Gal(b1-3)GalNAc6S
# Procedure, shortened: as §1
# [10] = target: Neu5Ac(a2-3)Gal(b1-3)GlcNAc
# Procedure, shortened: as §1
# [11] = target: Neu5Ac(a2-3)Gal(b1-3)GlcNAc(b1-2)Man(a1-3)[Neu5Ac(a2-3)Gal(b1-3)GlcNAc(b1-2)Man(a1-6)]Man(b1-4)GlcNAc(b1-4)GlcNAc
# Procedure, shortened: as §1
# [12] = target: Neu5Ac(a2-3)Gal(b1-3)GlcNAc(b1-3)Gal(b1-3)GlcNAc
# Procedure, shortened: as §1
# [13] = target: Neu5Ac(a2-3)Gal(b1-3)GlcNAc(b1-3)Gal(b1-4)GlcNAc
# Procedure, shortened: as §1
# [14] = target: Neu5Ac(a2-3)Gal(b1-3)GlcNAc(b1-3)GalNAc
# Procedure, shortened: as §1
# [15] = target: Neu5Ac(a2-3)Gal(b1-3)GlcNAc6S
# Procedure, shortened: as §1
# [16] = target: Neu5Ac(a2-3)Gal(b1-3)[Fuc(a1-4)]GlcNAc
# Procedure, shortened: as §1
# [17] = target: Neu5Ac(a2-3)Gal(b1-3)[Fuc(a1-4)]GlcNAc(b1-3)Gal(b1-3)[Fuc(a1-4)]GlcNAc
# Procedure, shortened: as §1
# [18] = target: Neu5Ac(a2-3)Gal(b1-3)[Fuc(a1-4)]GlcNAc(b1-3)Gal(b1-4)[Fuc(a1-3)]GlcNAc
# Procedure, shortened: as §1
# [19] = target: Neu5Ac(a2-3)Gal(b1-3)[Neu5Ac(a2-3)Gal(b1-4)]GlcNAc
# Procedure, shortened: as §1
# [20] = target: Neu5Ac(a2-3)Gal(b1-3)[Neu5Ac(a2-6)]GalNAc
# Procedure, shortened: as §1
# Neu5Ac(a2-3)Gal(b1-4)Glc = target: Neu5Ac(a2-3)Gal(b1-4)Glc
# Procedure, shortened: as §1
# [21] = target: Neu5Ac(a2-3)Gal(b1-4)GlcNAc
# Procedure, shortened: as §1
# [22] = target: Neu5Ac(a2-3)Gal(b1-4)GlcNAc(b1-2)Man(a1-3)[GlcNAc(b1-2)Man(b1-4)GlcNAc(b1-2)Man(a1-6)]Man(b1-4)GlcNAc(b1-4)GlcNAc
# Procedure, shortened: as §1
# [23] = target: Neu5Ac(a2-3)Gal(b1-4)GlcNAc(b1-2)Man(a1-3)[Neu5Ac(a2-6)Gal(b1-4)GlcNAc(b1-2)Man(a1-6)]Man(b1-4)GlcNAc(b1-4)GlcNAc
# Procedure, shortened: as §1
# [24] = target: Neu5Ac(a2-3)Gal(b1-4)GlcNAc(b1-3)Gal(b1-3)GlcNAc
# Procedure, shortened: as §1
# [25] = target: Neu5Ac(a2-3)Gal(b1-4)GlcNAc(b1-3)Gal(b1-4)GlcNAc
# Procedure, shortened: as §1
# [26] = target: Neu5Ac(a2-3)Gal(b1-4)GlcNAc(b1-3)Gal(b1-4)GlcNAc(b1-3)Gal(b1-4)GlcNAc
# Procedure, shortened: as §1
# [27] = target: Neu5Ac(a2-3)Gal(b1-4)GlcNAc(b1-3)Gal(b1-4)[Fuc(a1-3)]GlcNAc
# Procedure, shortened: as §1
# [28] = target: Neu5Ac(a2-3)Gal(b1-4)GlcNAc(b1-3)GalNAc
# Procedure, shortened: as §1
# [29] = target: Neu5Ac(a2-3)Gal(b1-4)GlcNAc(b1-6)[Gal(b1-3)]GalNAc
# Procedure, shortened: as §1
# [30] = target: Neu5Ac(a2-3)Gal(b1-4)GlcNAc(b1-6)[Neu5Ac(a2-3)Gal(b1-3)]GalNAc
# Procedure, shortened: as §1
# [31] = target: Neu5Ac(a2-3)Gal(b1-4)GlcNAc6S
# Procedure, shortened: as §1
# [32] = target: Neu5Ac(a2-3)Gal(b1-4)[Fuc(a1-3)]GlcNAc
# Procedure, shortened: as §1
binder,measurement,setting,value
B1,glycan array binding signal (z-score),[1],-0.294
same,glycan array binding signal (z-score),Man(a1-3)[Man(a1-6)]Man,0.118
same,glycan array binding signal (z-score),[2],1.03
same,glycan array binding signal (z-score),[3],-0.559
same,glycan array binding signal (z-score),[4],-0.42
same,glycan array binding signal (z-score),[5],0.597
same,glycan array binding signal (z-score),Man(a1-6)Man,-0.56
same,glycan array binding signal (z-score),Man(b1-4)GlcNAc,0.505
same,glycan array binding signal (z-score),Neu5Ac(a2-3)Gal,0.444
same,glycan array binding signal (z-score),[6],-0.071
same,glycan array binding signal (z-score),[7],-0.643
same,glycan array binding signal (z-score),[8],0.324
same,glycan array binding signal (z-score),[9],-0.333
same,glycan array binding signal (z-score),[10],-0.76
same,glycan array binding signal (z-score),[11],-0.633
same,glycan array binding signal (z-score),[12],-0.423
same,glycan array binding signal (z-score),[13],-0.706
same,glycan array binding signal (z-score),[14],-0.487
same,glycan array binding signal (z-score),[15],0.433
same,glycan array binding signal (z-score),[16],0.295
same,glycan array binding signal (z-score),[17],-0.158
same,glycan array binding signal (z-score),[18],-0.667
same,glycan array binding signal (z-score),[19],-0.729
same,glycan array binding signal (z-score),[20],0.026
same,glycan array binding signal (z-score),Neu5Ac(a2-3)Gal(b1-4)Glc,0.026
same,glycan array binding signal (z-score),[21],-0.069
same,glycan array binding signal (z-score),[22],-0.195
same,glycan array binding signal (z-score),[23],-0.723
same,glycan array binding signal (z-score),[24],-0.355
same,glycan array binding signal (z-score),[25],-0.402
same,glycan array binding signal (z-score),[26],-0.851
same,glycan array binding signal (z-score),[27],0.289
same,glycan array binding signal (z-score),[28],0.05
same,glycan array binding signal (z-score),[29],-0.443
same,glycan array binding signal (z-score),[30],0.238
same,glycan array binding signal (z-score),[31],0.344
same,glycan array binding signal (z-score),[32],-0.74

# A run of entries from the list above, as a working copy:
binder,measurement,setting,value
B1,glycan array binding signal (z-score),[13],-0.706
same,glycan array binding signal (z-score),[14],-0.487
same,glycan array binding signal (z-score),[15],0.433
